In this test the test system is primary human hepatic stellate cells (donor 1). Briefly: percent Bodipy-positive cells; higher = more lipid droplet accumulation. To be noted: 48 h.
Where [1] appears, read: library stock concentration: 10 mM.
Where [2] appears, read: library stock concentration: 3.33 mM.
The mark [3] stands for this setting: library stock concentration: 1 mM.

Where “and” joins values, the source holds several entries; their conditions need not be identical. Equal entries are not always repeated. Structures can show the parent of a compound that is named as a salt. ± gives the standard deviation of the averaged measurements. The list shows a part of the results. Baselines shift from plate to plate; read single values as rough.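 Culture-activated primary human stellate myofibroblasts, where regained lipid droplets signal inactivation. Value: share of Hoechst-counted cells above a per-plate Bodipy cutoff, in duplicate wells, with DMSO negative and nortriptyline positive controls on each plate. Hits: a control-normalized score above the plate's top-tenth-percentile nortriptyline wells, or one of a plate's three best wells. Final well concentrations are not given.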

As for `C[C@H]1[C@H]2CC[C@H]3[C@@H]4CC=C5C[C@@H](N(C)C)CC[C@]5(C)[C@H]4CC[C@]23CN1C` [Conessine], the “percent Bodipy-positive cells” value came to 54.4 ± 12%.
As to `Nc1ncnc2c1ncn2[C@@H]1O[C@@H]2COP(=O)(O)O[C@H]2[C@H]1O` [Adenosine 3',5'-cyclic monophosphate], under setting [1], the “percent Bodipy-positive cells” value was determined as 56.8 ± 1%.
On to `C[N+](C)(C)CC(O)CC(=O)[O-]` (racemic) [DL-Carnitine HCl], for which the “percent Bodipy-positive cells” value by setting is: under setting [2], 7.44 ± 3.5%; under setting [1], 12.5 ± 8.6%.
Regarding `CC(C)C(=O)c1c(C(C)C)nn2ccccc12` [Ibudilast], the “percent Bodipy-positive cells” value (library stock concentration: 8.7 mM) was determined as 9.19 ± 2.3%.
As to `COP(=O)(OC)OC(c1ccc(Cl)cc1)P(=O)(OC)OC` (centres undefined), under setting [1], the “percent Bodipy-positive cells” value is 6.75 ± 1.4%.
In the case of `CC(CN(C)C)CN1c2ccccc2CCc2ccccc21` (centres undefined) [Trimipramine maleate], the “percent Bodipy-positive cells” value runs as follows: (library stock concentration: 4.9 mM) 78.6 ± 2.1%; under setting [1], 79.3 ± 4.3%.
Take `CC(CN(C)C)CN1c2ccccc2CCc2ccccc21` (centres undefined) [Trimipramine maleate salt]: the “percent Bodipy-positive cells” value was 35.8 ± 1.1%.
For `Cn1c(N2CCCCS2(=O)=O)nc(C(=O)NCc2ccc(F)cc2)c(O)c1=O`, the “percent Bodipy-positive cells” value by setting is: under setting [2], 5.62 ± 2.6%; under setting [1], 12.2 ± 1.7%.
On to `O=C(O)CCC/C=C\C[C@@H]1[C@@H](/C=C/[C@@H](O)Cc2ccccc2)[C@H](O)C[C@@H]1O` [16-phenyl tetranor Prostaglandin F2.alpha.], for which the “percent Bodipy-positive cells” value under setting [3] was 19 ± 3.8%.
In the case of `O=C(c1ccccc1)c1ccc2nc(NC(=O)c3csc(C4CCN(c5ncnc6ccsc56)CC4)n3)[nH]c2c1`, the “percent Bodipy-positive cells” value under setting [2] was found to be 39.3 ± 9.5% and the “percent Bodipy-positive cells” value under setting [1] was determined as 32.8 ± 11%.
Take `CCCCCC(O)C=CC1C2CC(CO2)C1CCCCCCC(=O)O` (stereo not drawn) [9,11-methane-epoxy Prostaglandin F1.alpha.]: the “percent Bodipy-positive cells” value under setting [3] was 5.29 ± 0.7%.
For `COC(=O)[C@H]1[C@H]2C[C@H]3c4[nH]c5ccccc5c4CCN3C[C@H]2CC[C@@H]1O` [Rauwolscine hydrochloride], the “percent Bodipy-positive cells” value came out at 52.2 ± 40%. Further, the “percent Bodipy-positive cells” value under setting [1] is 17.7% and 10.5%.
As to `COC(=O)C(C)(N)Cc1ccc(O)cc1` (racemic) [alpha-Methyl-DL-tyrosine methyl ester hydrochloride], the “percent Bodipy-positive cells” value under setting [1] came out at 42.5 ± 5.1%.
In the case of `CC(C)NCC(O)COc1cccc2[nH]ccc12` (centres undefined) [Pindolol], the “percent Bodipy-positive cells” value is 27.3 ± 0.67%. Besides, under “library stock concentration: 8.1 mM”, the “percent Bodipy-positive cells” value is 7.99% and 10.4%.
In the case of `CC(C)NCC(O)COc1cccc2[nH]ccc12` (centres undefined), under setting [1], the “percent Bodipy-positive cells” value amounted to 36.3 ± 6%.
Turning to `OC(CCN1CCCC1)(c1ccccc1)C1CCCCC1` (centres undefined) [Procyclidine hydrochloride], the “percent Bodipy-positive cells” value was 38 ± 8.3%. For the same compound, where the note is “library stock concentration: 6.2 mM”, the “percent Bodipy-positive cells” value was determined as 62.3 ± 2.3%. In addition, the “percent Bodipy-positive cells” value under setting [1] stood at 62.8 ± 1%.
As to `c1ccc(\C(\c2c3cccc2)=C\CCNC)c(C=C3)c1` [Norcyclobenzaprine], the “percent Bodipy-positive cells” value was 90.5 ± 5.2%.
On to `CN(Cc1cc(Br)cc(Br)c1N)C1CCCCC1` [Bromhexine hydrochloride], for which the “percent Bodipy-positive cells” value (library stock concentration: 4.8 mM) worked out at 45 ± 2.9% and the “percent Bodipy-positive cells” value under setting [1] amounted to 38.4 ± 14%.
Turning to `CN(Cc1cc(Br)cc(Br)c1N)C1CCCCC1` [Bromhexine HCl], the “percent Bodipy-positive cells” value under setting [2] came out at 28 ± 26%, the “percent Bodipy-positive cells” value (library stock concentration: 5.3 mM) came out at 11.2 ± 0.69% and the “percent Bodipy-positive cells” value under setting [1] came out at 52.7 ± 11%.
For `C[C@H](CS)C(=O)N1CCC[C@H]1C(=O)O` [Captopril], the “percent Bodipy-positive cells” value was 22.7 ± 0.37%. The “percent Bodipy-positive cells” value under setting [2] stood at 10.8 ± 2.3%. Further, the “percent Bodipy-positive cells” value (library stock concentration: 9.2 mM) is 12.4% and 12.7%.
On to `C[C@H](CS)C(=O)N1CCC[C@H]1C(=O)O`, for which the “percent Bodipy-positive cells” value under setting [1] was determined as 18.6 ± 2.6%.

The values are drawn from the supplement of paper PMC9135407.
